# Test results reported in publication PMC8236860, “Regulation of Dual Activity of Ascorbate Peroxidase 1 From Arabidopsis thaliana by Conformational Changes and Posttranslational Modifications” (Frontiers in Plant Science, 2021).
# Results are given in words; binding and its absence hold for the method and conditions named. Some entries that bind do so weakly or less than the wild type.
# B1: AtAPX1 protein, endogenous in Arabidopsis thaliana (Col-0) seedlings (enzyme, UniProt Q05431 1-250)
# chain: MTKNYPTVSEDYKKAVEKCRRKLRGLIAEKNCAPIMVRLAWHSAGTFDCQSRTGGPFGTMRFDAEQAHGANSGIHIALRLLDPIREQFPTISFADFHQLAGVVAVEVTGGPDIPFHPGREDKPQPPPEGRLPDATKGCDHLRDVFAKQMGLSDKDIVALSGAHTLGRCHKDRSGFEGAWTSNPLIFDNSYFKELLSGEKEGLLQLVSDKALLDDPVFRPLVEKYAADEDAFFADYAEAHMKLSELGFADA
# Target: AtAPX1 protein, endogenous in Arabidopsis thaliana (Col-0) seedlings (Arabidopsis thaliana (endogenous in Col-0 seedlings)) (UniProt Q05431)
# Assay: native gel or EMSA; 10% native-PAGE of 20 μg total protein of Col-0 seedlings, western blot with anti-AtAPX1 antibody; control, heat stress (42°C, 1 h), salt stress (200 mM NaCl, 6 h) and recovery
binder,measurement,value
B1,binding,binds
